Experimental data as given in patent US20190300589A1.
Results are given in words; binding and its absence hold for the method and conditions named. Some entries that bind do so weakly or less than the wild type. Sequences can lack the tags named with a protein.

Chains of the proteins cited; added tags and fusions are not shown. Lines headed by an entry give the natural chain unless they say otherwise; changes in a name come on top.
UniProt P01031: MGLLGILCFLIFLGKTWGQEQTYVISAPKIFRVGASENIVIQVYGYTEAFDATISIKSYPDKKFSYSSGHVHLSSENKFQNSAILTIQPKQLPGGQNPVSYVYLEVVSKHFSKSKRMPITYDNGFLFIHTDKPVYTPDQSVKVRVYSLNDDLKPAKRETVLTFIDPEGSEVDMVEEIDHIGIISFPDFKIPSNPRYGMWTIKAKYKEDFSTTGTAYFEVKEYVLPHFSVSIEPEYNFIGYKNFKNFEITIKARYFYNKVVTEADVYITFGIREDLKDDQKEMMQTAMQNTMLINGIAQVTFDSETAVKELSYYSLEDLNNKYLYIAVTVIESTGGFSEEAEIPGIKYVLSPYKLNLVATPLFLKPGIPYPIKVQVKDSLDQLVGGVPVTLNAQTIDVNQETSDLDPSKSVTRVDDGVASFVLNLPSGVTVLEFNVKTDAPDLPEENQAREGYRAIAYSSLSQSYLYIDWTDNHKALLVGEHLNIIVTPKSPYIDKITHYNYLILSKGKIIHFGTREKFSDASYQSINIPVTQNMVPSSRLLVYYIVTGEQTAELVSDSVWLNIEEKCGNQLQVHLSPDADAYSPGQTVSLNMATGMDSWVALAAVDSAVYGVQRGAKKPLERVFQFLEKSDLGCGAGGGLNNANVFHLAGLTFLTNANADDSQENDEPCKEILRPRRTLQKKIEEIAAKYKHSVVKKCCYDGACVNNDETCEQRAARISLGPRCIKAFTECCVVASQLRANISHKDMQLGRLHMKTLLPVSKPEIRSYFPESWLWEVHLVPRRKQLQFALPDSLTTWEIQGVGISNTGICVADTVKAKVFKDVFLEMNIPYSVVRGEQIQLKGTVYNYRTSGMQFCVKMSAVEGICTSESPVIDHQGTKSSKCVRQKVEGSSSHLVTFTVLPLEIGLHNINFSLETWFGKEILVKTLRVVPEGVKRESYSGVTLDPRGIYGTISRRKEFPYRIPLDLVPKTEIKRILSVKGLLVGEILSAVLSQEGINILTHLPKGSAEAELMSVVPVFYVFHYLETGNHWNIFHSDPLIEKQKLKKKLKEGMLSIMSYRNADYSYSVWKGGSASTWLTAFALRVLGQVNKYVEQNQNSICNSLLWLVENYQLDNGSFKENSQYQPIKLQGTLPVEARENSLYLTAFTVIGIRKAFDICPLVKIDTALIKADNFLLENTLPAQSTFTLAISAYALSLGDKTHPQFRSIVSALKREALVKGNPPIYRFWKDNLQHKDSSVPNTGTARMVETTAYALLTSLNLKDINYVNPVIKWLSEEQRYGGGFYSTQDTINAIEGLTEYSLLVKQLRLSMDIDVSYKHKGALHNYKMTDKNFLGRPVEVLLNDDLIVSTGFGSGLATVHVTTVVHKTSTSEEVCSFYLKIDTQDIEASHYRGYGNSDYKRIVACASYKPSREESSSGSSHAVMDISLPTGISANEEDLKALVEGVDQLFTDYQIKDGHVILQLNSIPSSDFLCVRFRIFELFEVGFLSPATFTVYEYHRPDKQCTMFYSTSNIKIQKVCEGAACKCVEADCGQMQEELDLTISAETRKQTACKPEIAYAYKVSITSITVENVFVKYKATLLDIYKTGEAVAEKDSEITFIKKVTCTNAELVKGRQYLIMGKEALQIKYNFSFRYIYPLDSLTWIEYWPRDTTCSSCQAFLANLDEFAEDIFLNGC
UniProt P01024: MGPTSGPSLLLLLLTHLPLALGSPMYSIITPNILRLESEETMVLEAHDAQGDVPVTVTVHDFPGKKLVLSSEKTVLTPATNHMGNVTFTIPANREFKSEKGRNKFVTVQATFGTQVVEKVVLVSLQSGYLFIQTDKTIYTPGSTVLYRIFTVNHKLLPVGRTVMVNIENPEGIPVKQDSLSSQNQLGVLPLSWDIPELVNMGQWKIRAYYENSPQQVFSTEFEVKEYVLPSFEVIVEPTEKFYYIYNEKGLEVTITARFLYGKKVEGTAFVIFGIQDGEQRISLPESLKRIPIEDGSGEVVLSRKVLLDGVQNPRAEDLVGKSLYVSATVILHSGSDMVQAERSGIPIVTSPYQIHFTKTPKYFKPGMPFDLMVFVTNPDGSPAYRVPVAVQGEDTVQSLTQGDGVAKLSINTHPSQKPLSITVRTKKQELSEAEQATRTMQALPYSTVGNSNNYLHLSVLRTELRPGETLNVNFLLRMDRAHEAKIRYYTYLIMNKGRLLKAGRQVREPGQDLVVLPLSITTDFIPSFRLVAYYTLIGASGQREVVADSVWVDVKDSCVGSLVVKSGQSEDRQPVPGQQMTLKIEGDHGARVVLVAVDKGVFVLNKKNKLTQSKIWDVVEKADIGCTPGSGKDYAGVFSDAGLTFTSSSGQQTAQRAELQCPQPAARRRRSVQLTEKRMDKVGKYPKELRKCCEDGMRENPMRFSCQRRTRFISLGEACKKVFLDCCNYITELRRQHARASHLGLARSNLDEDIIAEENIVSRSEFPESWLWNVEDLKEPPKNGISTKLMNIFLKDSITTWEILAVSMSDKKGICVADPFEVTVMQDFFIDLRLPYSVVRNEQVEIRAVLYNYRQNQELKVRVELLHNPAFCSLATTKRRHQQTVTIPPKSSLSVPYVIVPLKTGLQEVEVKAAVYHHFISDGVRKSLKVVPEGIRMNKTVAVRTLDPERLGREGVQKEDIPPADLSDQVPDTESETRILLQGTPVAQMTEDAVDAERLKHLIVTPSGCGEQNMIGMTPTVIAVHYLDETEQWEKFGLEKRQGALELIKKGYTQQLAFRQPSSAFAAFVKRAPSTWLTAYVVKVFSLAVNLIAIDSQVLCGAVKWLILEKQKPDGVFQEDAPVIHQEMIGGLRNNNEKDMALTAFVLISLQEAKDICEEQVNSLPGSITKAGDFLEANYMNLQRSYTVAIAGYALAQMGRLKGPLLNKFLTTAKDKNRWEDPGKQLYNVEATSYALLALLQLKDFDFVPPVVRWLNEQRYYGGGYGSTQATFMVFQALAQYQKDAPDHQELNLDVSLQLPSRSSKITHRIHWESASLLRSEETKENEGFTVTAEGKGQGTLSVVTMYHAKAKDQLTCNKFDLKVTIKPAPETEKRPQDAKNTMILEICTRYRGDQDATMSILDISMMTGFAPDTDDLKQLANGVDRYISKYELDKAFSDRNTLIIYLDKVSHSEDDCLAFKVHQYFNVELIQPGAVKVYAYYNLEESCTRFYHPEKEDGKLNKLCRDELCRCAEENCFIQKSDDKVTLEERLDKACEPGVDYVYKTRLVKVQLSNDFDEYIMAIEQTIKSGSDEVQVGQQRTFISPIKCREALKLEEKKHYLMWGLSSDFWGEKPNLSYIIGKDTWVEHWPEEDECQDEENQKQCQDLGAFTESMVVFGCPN

What was measured:
[1] = target: C5 (complement component C5) (UniProt P01031); test: ELISA, MFHR1 (133 nM) immobilised, C5 at 10, 20, 40 µg/ml, monoclonal C5 antibody detection
[2] = target: C5 (complement component C5) (UniProt P01031); test: ELISA, MFHR1 immobilised, C5 in solution
C3b [3] = target: C3b (UniProt P01024); test: ELISA, C3b immobilised, serial dilutions of MFHR1, anti-FH detection
C3b [4] = target: C3b (UniProt P01024); test: ELISA on C3b coated plates, alone or with FHR1 or FHR5 from equimolar to 100-fold excess
C3b [5] = target: C3b (UniProt P01024); test: ELISA, C3b immobilised

Measured: binding

B1: MFHR1 (His-tag - FHR1(SCR1-2)-FH(SCR1-4)-FH(SCR19-20)) (protein)
chain: ADLGSHHHHHHHHHHDYDRSFCDFPKINHGILYDEEKYKPFSQVPTGEVFYYSCEYNFVSPSKSFWTRITCTEEGWSPTPKCLRLCFFPFVENGHSESSGQTHLEGDTVQIICNTGYRLQNNENNISCVERGWSTPPKCRSEDCNELPPRRNTEILTGSWSDQTYPEGTQAIYKCRPGYRSLGNVIMVCRKGEWVALNPLRKCQKRPCGHPGDTPFGTFTLTGGNVFEYGVKAVYTCNEGYQLLGEINYRECDTDGWTNDIPICEVVKCLPVTAPENGKIVSSAMEPDREYHFGQAVRFVCNSGYKIEGDEEMHCSDDGFWSKEKPKCVEISCKSPDVINGSPISQKIIYKENERFQYKCNMGYEYSERGDAVCTESGWRPLPSCEDSTGKCGPPPPIDNGDITSFPLSVYAPASSVEYQCQNLYQLEGNKRITCRNGQWSEPPKCLHPCVISREIMENYNIALRWTAKQKLYSRTGESVEFVCKRGYRLSSRSHTLRTTCWDGKLEYPTCAKR
binds: all assays above
